From US20020122799A1
No constants are given. Whether binding was seen depends on the method and setting. Some results given as binding are weak or reduced against the parent protein; the word gives no strength.

Protein sequences, listed by entry. Tags and fused reporters are not part of them. Residues count along the entry.
UniProt Q15109, residues 23-342: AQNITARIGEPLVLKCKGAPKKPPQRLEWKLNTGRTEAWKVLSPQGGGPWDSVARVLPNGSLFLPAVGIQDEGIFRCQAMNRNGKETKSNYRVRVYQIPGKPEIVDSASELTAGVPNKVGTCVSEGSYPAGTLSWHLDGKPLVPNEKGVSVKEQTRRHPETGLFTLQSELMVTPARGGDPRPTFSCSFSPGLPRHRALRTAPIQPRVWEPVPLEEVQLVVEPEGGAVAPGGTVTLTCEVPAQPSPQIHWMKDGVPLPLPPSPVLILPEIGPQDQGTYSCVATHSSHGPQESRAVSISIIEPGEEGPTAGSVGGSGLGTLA

Experiments:
[1] = target: T1, EN-RAGE (Extracellular Novel RAGE binding protein) (bovine) (UniProt P79105); assay: competition: sRAGE blocks binding of EN-RAGE to immobilized and cellular RAGE
T1 sequence (radiolabelled with 125-I (Iodobeads) in the radioligand binding assays, looked up): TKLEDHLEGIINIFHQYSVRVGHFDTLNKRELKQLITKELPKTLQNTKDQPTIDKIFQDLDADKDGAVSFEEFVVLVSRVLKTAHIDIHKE

[2] = target: T1, EN-RAGE (Extracellular Novel RAGE binding protein) (bovine); assay: isolation of RAGE-binding proteins from bovine lung extract
[3] = target: T1, EN-RAGE (Extracellular Novel RAGE binding protein) (bovine); assay: competition: 50-fold molar excess of sRAGE against 125I-EN-RAGE binding to RAGE-bearing CHO cells
[4] = target: T1, EN-RAGE (Extracellular Novel RAGE binding protein) (bovine); assay: affinity chromatography on immobilized soluble human RAGE and screening of immobilized column fractions with 125-I-labelled sRAGE

Measured: binding

soluble human RAGE (sRAGE) (from UniProt Q15109 23-342) (receptor)
binds: [1] | [2] | [3] | [4]
